Earlier results as cited in patent US20230073449A1, “STROMA-FREE T CELL DIFFERENTIATION FROM HUMAN PLURIPOTENT STEM CELLS” (THE CHILDREN'S MEDICAL CENTER CORPORATION, priority 2020, published 2023).

Protein sequences, listed by entry. Tags and fused reporters are not part of them.
UniProt Q15910, whole entry: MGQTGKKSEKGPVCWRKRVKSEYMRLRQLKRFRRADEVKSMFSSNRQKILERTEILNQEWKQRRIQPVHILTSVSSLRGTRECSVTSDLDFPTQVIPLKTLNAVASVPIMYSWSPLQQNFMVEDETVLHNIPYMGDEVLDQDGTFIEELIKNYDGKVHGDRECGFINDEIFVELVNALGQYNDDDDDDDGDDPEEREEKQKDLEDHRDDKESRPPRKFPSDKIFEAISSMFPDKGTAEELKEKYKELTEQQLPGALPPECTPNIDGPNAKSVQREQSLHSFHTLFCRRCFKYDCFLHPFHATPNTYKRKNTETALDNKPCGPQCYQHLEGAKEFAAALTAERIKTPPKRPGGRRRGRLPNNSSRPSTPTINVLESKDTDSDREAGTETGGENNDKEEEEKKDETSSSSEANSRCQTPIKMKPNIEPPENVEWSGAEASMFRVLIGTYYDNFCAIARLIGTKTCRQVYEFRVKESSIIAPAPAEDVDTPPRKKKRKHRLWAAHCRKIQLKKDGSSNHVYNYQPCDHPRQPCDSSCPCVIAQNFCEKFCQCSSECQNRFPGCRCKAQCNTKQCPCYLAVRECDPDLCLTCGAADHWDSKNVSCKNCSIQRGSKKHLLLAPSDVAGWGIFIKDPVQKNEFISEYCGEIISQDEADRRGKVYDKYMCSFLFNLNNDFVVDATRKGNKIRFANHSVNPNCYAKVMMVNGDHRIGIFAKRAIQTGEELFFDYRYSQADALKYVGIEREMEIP

Molecular target: polycomb repressive complex 2 (PRC2) (Homo sapiens, UniProt Q15910)
Conditions: PRC2, at 10 μM; cited from earlier work

## O=C(O)c1ccc2c(c1)nc(NC(=O)c1ccccc1)n2CCCc1ccccc1 [BRD9539]
  activity remaining: 43%
